In article PMC11014987 one finds binding data, which are given here for one molecule.

Results are given in words; binding and its absence hold for the method and conditions named. For part of these data: Binding can be weak; no strength is given. Where a sequence is shown, tags or fusion partners need not be part of it.

What all share (experiment): two-hybrid; yeast Y2H-Gold, Gal4 system (pGBKT7 / pGADT7-AD); growth on SD -Leu -Trp -His -Ala, 30 °C, 3 days; three independent clones
The target in test [1] is HdrB (also referred to as SdhEE) (yeast two-hybrid fusion) (Synechocystis sp. PCC 6803).
In test [2] the target is SdhA, flavoprotein subunit of succinate dehydrogenase (yeast two-hybrid fusion) (Synechocystis sp. PCC 6803).
Test [3] concerns the target SdhB1 with mutation of Cys214 (yeast two-hybrid fusion) (Synechocystis sp. PCC 6803) (UniProt P73723).
Test [4] deals with SdhB2 (sll0823) (yeast two-hybrid fusion) (Synechocystis sp. PCC 6803) (UniProt Q55431).
Test [5] deals with sll1946 (yeast two-hybrid fusion) (Synechocystis sp. PCC 6803).
Test [6] has as its target slr1020 (yeast two-hybrid fusion) (Synechocystis sp. PCC 6803).

B1: Dri1 (yeast two-hybrid fusion) (protein, UniProt P73129 1-96)
chain: MADPLTPAISDRICKHMNEDHASAIALYAQVFGQQTDVTMAQMQAIDPTGMDLVVESEGGSKTIRIEFEQPLKDSEDAHQVLIAMAKQARSVGKNS
In the case of B1, the binding entry was “no binding” in test [1]; “no binding” in test [2]; “no binding” in test [3]; “binds” in test [4]; “no binding” in test [5]; “no binding” in test [6].
